The other results are listed elsewhere or left out. Shown are side measurements of this screen, not its main read-out; they come without a call. The list favours compounds with an active or inconclusive main result. Words in brackets tell the shape of the fitted curve; partial curves, single points and poor fits give uncertain potencies.
Test: qHTS Assay for Lipid Storage Modulators in Drosophila S3 Cells;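 for cell number change: cells counted by Cell Tracker Red CMTPX staining in the red channel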
Settings: BODIPY lipid droplet fluorescence, 18-24 h; for cell number change: measured here: cell count max response, cells fed with added oleic acid
In short: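 Drosophila S3 cells loaded with oleic acid (400 uM, as added) and compounds at several concentrations; lipid droplets imaged by 488-nm laser-scanning cytometry, 500–530 nm intensity and object ratio to cell channel. Percent activity normalized to 20 uM Triacsin C.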

[1] = measured here: lipid fluorescence (Fed channel) AC50, cells fed with added oleic acid
[2] = measured here: cell number channel AC50, cells fed with added oleic acid

SMILES | cell number change | AC50 [1] | AC50 [2]
COc1ccc(N2C(=O)CC(c3ccccc3)C2=O)cc1 (stereo not drawn) | 7.47% | 0.291 µM [falling, full curve, poor fit] | 
Cc1ccc(-c2csc3nc[nH]c(=S)c23)cc1 | -0.112% | 29.1 µM [falling, single point] | 
S=C(NCc1ccccc1)N1CCCCC1 | 34.5% | 6.51 µM [falling, partial curve, poor fit] | 23.1 µM [rising, single point]
COc1cc2c(cc1OC)C(/C=C/c1ccco1)=NCC2 | 5.04% | 0.82 µM [falling, full curve, poor fit] | 
Cc1ccc(S(=O)(=O)NC2=C(N3CCN(c4ccccc4F)CC3)C(=O)c3ccccc3C2=O)cc1 | -11.3% | 11.6 µM [falling, partial curve, poor fit] | 
COc1cccc(OC)c1C(=O)NC(=S)Nc1ccc2oc(=O)ccc2c1 | -16.7% | 23.1 µM [falling, partial curve] | 
Cc1ccc(CNc2cc(-c3nn4c(C)nnc4s3)ccc2C)s1 | 5.95% | 6.51 µM [rising, single point] | 
COc1ccccc1C(=O)NCC(=O)N1CC=C(c2ccccc2)CC1 | -4.79% | 0.146 µM [rising, full curve, poor fit] | 
CCOC(=O)C1CCCN(c2c(C(=O)c3ccccc3)cnc3ccc(OC)cc23)C1 (stereo not drawn) | 36.6% |  | 18.4 µM [rising, single point]
CSc1nnc([C@@H](NC(=O)OC(C)(C)C)C(C)C)o1 | -9.74% | 0.00461 µM [falling, full curve, poor fit] | 0.651 µM [rising, single point]
O=C(NCc1ccccn1)c1cc(-c2ccncc2)nc2ccccc12 |  | 1.64 µM [rising, partial curve] | 4.61 µM [rising, single point]
CC1CN(Cc2nc3c(c(=O)n(C)c(=O)n3C)n2CCN2CCOCC2)CC(C)O1 (stereo not drawn) | -40.2% | 32.6 µM [rising, single point] | 32.6 µM [falling, single point]
Cc1ccc(COc2cccc3c2CCN(Cc2ccc(F)cc2)C3=O)cc1 | -17.6% |  | 
O=C(Cn1[nH]c(=O)c2ccccc2c1=O)NCC1COc2ccccc2O1 (stereo not drawn) | -18.7% | 29.1 µM [falling, single point] | 
COc1ccc(-c2nnc3n2CCCCC3)cc1OC | 7.83% |  | 
CCC(=O)Nc1ccc(Nc2nc(C)c([N+](=O)[O-])c(Nc3ccc(NC(=O)CC)cc3)n2)cc1 | -19.3% | 7.31 µM [falling, partial curve] | 
O=C(COc1ccc(Cl)cc1[N+](=O)[O-])NC1CCCCC1 | 50.4% |  | 
CCC(=O)NC(c1cccs1)c1ccc2cccnc2c1O (stereo not drawn) | -6.47% | 7.31 µM [falling, partial curve] | 
O=C(Cc1ccccc1)Nc1ccc(N2CCCC2)cc1 | 1.58% | 4.61 µM [rising, full curve, poor fit] | 
O=C(CCCn1c(=S)[nH]c2cc3c(cc2c1=O)OCO3)NCc1cccc(Cl)c1 | 8.25% | 20.6 µM [rising, partial curve] | 6.51 µM [rising, single point]

SMILES | cell number change | AC50 [1] | AC50 [2]
CCNC(=S)N1CCn2c(nc3ccccc32)C1 | 1.27% | 0.366 µM [falling, full curve, poor fit] | 
C=CCN1C(=O)c2ccc(C(=O)OCC(=O)Nc3ccccc3OC)cc2C1=O | -51.3% |  | 23.1 µM [falling, partial curve, poor fit]
COc1cccc(OC)c1C(=O)NC(=S)NCc1cccnc1 | 27.4% |  | 0.164 µM [rising, full curve, poor fit]
O=C(N/N=C/c1ccc2c(c1)OCO2)c1cc(-c2ccc(F)cc2)nc2ccccc12 | 19.6% |  | 
COc1ccccc1CNC(=O)c1ccc(Cl)c(NC2=NC3CS(=O)(=O)CC3S2)c1 (stereo not drawn) | 6.63% |  | 0.82 µM [rising, full curve, poor fit]
COc1ccc(-n2c(SCC(=O)OC(C)C)nnc2-c2ccccn2)cc1 | -7.1% | 20.6 µM [rising, partial curve] | 6.51 µM [falling, single point]
CCC(NC(=O)C1CCCO1)c1ccccc1 (stereo not drawn) | 12.6% | 29.1 µM [rising, single point] | 
COc1ccc(OC)c(S(=O)(=O)CC(O)CS(=O)(=O)c2ccccc2)c1 (stereo not drawn) | 40.9% | 3.66 µM [rising, full curve, poor fit] | 29.1 µM [rising, single point]
CN(CC(=O)Nc1ccc(C(N)=O)cc1)CC(=O)Nc1ccccc1Cl | -2.59% |  | 
O=C(Oc1cccc([N+](=O)[O-])c1)c1ccc2c(=O)n3c(nc2c1)CCC3 | -6.37% | 29.1 µM [falling, single point] | 
O=C(O)CCc1ccc(-c2cccs2)n1NC(=O)c1ccco1 | -12.2% | 7.31 µM [falling, partial curve] | 
Cc1cc(C)cc(N(CC(=O)N2CC=C(c3ccccc3)CC2)S(=O)(=O)c2c(C)noc2C)c1 | -14.9% |  | 
CC(=O)c1cccc(NC(=O)NNC(=O)c2ccc(Cl)cc2Cl)c1 | 9.68% | 14.6 µM [rising, partial curve, poor fit] | 
COc1ccc(C(c2sc3nc(C)nn3c2O)N2CCN(CCO)CC2)cc1OC (stereo not drawn) |  | 6.51 µM [falling, full curve] | 
Cc1cc(SCC#N)nc2ccccc12 | 7.07% |  | 
Cc1ccc(NC(=S)Nc2cc(C(=O)O)ccc2N2CC3CC(C2)c2cccc(=O)n2C3)cc1C (stereo not drawn) | -23.2% | 0.651 µM [falling, partial curve] | 0.731 µM [falling, full curve, poor fit]
CN(C(=S)NC(=O)c1ccc(Cl)cc1)C1CCCCC1 |  | 29.1 µM [rising, single point] | 
O=C(COC(=O)c1ccc(O)cc1O)Nc1ccc2ccccc2c1 | 18.7% | 20.6 µM [rising, single point] | 
Cc1noc(C)c1C(=O)NCCC1=CCCCC1 | 7.14% |  | 
CCN(CC)S(=O)(=O)c1ccc(OC)c(NC(=S)Nc2cc(C)ccc2C)c1 | -35.7% | 0.651 µM [falling, single point] | 32.6 µM [falling, single point]

SMILES | cell number change | AC50 [1] | AC50 [2]
CSc1n[nH]c(-c2sccc2OCc2ccc(C)cc2)n1 | 149% | 29.1 µM [rising, single point] | 
COCCCNC(=O)C1CC(=O)N(CCc2ccc(F)cc2)C1 (stereo not drawn) | -2.62% |  | 
O=C(CSc1ncccn1)NC(=O)Nc1ccc2c(c1)OCCO2 | 62.1% |  | 
C#CCOCCOCCOCCNc1nc(N2CCN(C(=O)CCCCCCCCCCNC(=O)[C@H](CCCCN)n3cc(C[C@@H](C)CC)nn3)CC2)nc(N2CCN(C(=O)CCCCCCCCCCNC(=O)[C@@H]([C@H](C)O)n3cc(C)nn3)CC2)n1 | -88.4% |  | 7.31 µM [falling, partial curve]
Cc1ccc([N+](=O)[O-])cc1NC(=S)NCCc1ccccc1 | -39.1% |  | 32.6 µM [falling, single point]
CCOc1ccc(OCC)c(NC(=O)C2CCCN(C(=O)c3ccc(Cl)cc3)C2)c1 (stereo not drawn) | 16.8% | 6.51 µM [falling, single point] | 
COc1cc(/C=N/NC(=O)[C@H](Cc2c[nH]c3ccccc23)NC(=O)OCC(C)C)cc([N+](=O)[O-])c1O | 10.3% | 0.517 µM [rising, full curve] | 
COc1ccc(/C=N/NC(=S)NCc2ccccc2)cc1OC |  |  | 6.51 µM [rising, single point]
CCC(CC)NC(=O)c1ccc(Cl)cc1 |  |  | 0.58 µM [rising, single point]
O=C(Cn1cc2c(n1)CCCC2)N1CCCC1 | -7.76% | 1.3 µM [falling, full curve] | 0.0461 µM [falling, full curve, poor fit]
COc1ccc(C)cc1NC(=O)CN(Cc1nnc(-c2ccc(Cl)cc2)o1)C1CCCC1 | 138% | 29.1 µM [rising, single point] | 29.1 µM [rising, partial curve]
COc1ccc(Cl)cc1S(=O)(=O)NC(C)C(=O)NCc1ccccn1 (stereo not drawn) | 10.5% |  | 0.0058 µM [rising, full curve, poor fit]
COc1cccc(C(=O)NC2CC3CCCC(C2)N3S(=O)(=O)c2ccccc2)c1 (stereo not drawn) |  | 0.164 µM [falling, full curve, poor fit] | 
O=C(Nc1ccccc1C(=O)N1CCN(Cc2ccccc2)CC1)c1ccccc1 |  | 13 µM [rising, partial curve] | 
CC(=O)Nc1ccc(SCC(=O)NNC(=O)CN(C)S(=O)(=O)c2ccc(C)cc2)cc1 | 7.63% |  | 
CN(CC(=O)Nc1ccc(N2CCOCC2)cc1)C(=O)Cc1ccccc1 | -12.9% | 7.31 µM [falling, single point] | 
CCn1c(CN(C)c2ccccc2)nc2ccccc21 | 16.8% | 0.0326 µM [rising, full curve, poor fit] | 
O=C(O)C(Oc1ccc2c3c(c(=O)oc2c1)CCC3)c1ccccc1 (stereo not drawn) | -15.6% | 29.1 µM [rising, partial curve, poor fit] | 
CC(C)(C)c1cc(Cl)ccc1OCCn1ccnc1 | -41.8% |  | 16.4 µM [falling, single point]
CC1=Nc2cccc3cccc(c23)N1C | -33.3% |  | 8.2 µM [falling, single point]

Taken from above.
`CC1=Nc2cccc3cccc(c23)N1C` | cell number change: -33.3%
`COc1ccc(Cl)cc1S(=O)(=O)NC(C)C(=O)NCc1ccccn1` (stereo not drawn) | AC50 [2]: 0.0058 µM [rising, full curve, poor fit]
`O=C(Nc1ccccc1C(=O)N1CCN(Cc2ccccc2)CC1)c1ccccc1` | AC50 [1]: 13 µM [rising, partial curve]
`CC(C)(C)c1cc(Cl)ccc1OCCn1ccnc1` | cell number change: -41.8%
`COc1ccc(/C=N/NC(=S)NCc2ccccc2)cc1OC` | AC50 [2]: 6.51 µM [rising, single point]
